Measured values published in the supplement of paper PMC10849652.
The list shows a part of the results.

Protein sequences, listed by entry. Tags and fused reporters are not part of them. Lines headed by an entry give the natural chain unless they say otherwise; changes in a name come on top.
UniProt P55809: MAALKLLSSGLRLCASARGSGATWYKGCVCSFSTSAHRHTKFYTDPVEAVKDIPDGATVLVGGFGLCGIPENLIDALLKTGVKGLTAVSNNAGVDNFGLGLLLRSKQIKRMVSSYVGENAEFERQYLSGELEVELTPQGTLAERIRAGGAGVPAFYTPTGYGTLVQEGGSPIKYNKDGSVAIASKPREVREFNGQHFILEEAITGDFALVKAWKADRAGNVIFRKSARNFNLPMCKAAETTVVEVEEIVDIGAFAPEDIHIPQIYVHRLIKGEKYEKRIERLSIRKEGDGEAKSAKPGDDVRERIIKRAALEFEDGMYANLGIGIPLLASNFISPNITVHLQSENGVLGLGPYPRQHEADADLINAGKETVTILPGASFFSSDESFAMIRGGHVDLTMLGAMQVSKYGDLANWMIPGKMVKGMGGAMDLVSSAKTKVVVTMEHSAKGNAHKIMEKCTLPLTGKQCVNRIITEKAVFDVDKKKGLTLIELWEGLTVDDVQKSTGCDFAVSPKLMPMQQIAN
UniProt Q9H1E3: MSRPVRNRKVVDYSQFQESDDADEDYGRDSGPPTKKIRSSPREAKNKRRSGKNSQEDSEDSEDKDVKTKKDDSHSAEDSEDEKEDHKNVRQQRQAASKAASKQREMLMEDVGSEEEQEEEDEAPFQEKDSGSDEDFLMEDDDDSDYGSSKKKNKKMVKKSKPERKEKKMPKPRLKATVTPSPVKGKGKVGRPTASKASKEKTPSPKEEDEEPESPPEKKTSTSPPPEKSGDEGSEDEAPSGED
UniProt Q9BW91: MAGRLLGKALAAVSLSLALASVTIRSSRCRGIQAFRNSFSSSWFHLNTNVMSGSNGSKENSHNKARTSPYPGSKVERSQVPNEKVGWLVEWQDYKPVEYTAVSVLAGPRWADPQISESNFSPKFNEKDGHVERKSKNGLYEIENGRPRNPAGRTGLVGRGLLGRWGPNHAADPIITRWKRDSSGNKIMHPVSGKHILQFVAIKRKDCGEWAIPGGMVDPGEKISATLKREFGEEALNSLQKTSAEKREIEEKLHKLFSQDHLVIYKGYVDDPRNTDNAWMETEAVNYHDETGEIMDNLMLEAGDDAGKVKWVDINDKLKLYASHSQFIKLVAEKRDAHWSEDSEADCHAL
UniProt Q9Y5Y2: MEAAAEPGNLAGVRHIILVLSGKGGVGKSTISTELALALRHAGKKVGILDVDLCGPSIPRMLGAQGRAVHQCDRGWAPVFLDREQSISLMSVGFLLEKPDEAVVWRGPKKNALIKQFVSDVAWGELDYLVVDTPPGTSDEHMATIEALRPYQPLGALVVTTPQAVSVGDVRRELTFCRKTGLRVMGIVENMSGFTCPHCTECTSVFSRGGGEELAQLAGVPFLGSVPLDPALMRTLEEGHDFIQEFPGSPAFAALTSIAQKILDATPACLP
UniProt Q96SU4: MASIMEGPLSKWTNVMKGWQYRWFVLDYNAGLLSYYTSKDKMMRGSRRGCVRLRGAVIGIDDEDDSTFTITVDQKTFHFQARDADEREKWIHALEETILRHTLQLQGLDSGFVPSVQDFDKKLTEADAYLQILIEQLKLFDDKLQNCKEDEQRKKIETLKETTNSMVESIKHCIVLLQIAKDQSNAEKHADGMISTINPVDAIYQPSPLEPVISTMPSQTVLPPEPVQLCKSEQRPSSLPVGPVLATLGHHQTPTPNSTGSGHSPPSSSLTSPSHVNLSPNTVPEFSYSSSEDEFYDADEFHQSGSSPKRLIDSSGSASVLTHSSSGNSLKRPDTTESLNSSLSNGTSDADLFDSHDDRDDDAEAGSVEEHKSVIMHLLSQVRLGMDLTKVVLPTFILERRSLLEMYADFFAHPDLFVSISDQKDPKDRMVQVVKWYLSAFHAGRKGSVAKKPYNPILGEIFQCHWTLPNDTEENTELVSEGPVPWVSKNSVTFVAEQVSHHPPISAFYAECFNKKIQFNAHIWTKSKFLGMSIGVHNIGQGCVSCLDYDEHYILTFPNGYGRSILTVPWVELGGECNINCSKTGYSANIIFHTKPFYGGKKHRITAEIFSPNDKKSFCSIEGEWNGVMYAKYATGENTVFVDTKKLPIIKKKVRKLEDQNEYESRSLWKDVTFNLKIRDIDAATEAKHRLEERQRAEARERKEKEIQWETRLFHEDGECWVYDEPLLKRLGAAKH
UniProt Q9NZT2: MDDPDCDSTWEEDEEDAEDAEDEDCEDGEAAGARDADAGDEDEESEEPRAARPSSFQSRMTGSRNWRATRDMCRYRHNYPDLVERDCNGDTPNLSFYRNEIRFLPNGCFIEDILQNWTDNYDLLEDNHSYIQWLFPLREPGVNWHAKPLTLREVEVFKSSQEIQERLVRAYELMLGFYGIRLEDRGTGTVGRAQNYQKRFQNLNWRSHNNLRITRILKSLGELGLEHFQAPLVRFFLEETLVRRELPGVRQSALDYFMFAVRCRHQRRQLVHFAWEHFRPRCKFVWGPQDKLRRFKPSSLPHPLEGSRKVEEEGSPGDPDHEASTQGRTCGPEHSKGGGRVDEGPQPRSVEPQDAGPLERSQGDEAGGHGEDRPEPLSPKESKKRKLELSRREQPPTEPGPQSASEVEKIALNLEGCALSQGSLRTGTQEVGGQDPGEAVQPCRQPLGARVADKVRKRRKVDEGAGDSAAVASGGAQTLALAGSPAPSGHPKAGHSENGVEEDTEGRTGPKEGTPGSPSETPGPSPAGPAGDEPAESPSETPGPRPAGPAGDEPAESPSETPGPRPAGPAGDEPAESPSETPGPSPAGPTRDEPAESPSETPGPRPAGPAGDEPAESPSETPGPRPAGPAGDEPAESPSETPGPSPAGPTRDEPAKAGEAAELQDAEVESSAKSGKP
UniProt Q32P28: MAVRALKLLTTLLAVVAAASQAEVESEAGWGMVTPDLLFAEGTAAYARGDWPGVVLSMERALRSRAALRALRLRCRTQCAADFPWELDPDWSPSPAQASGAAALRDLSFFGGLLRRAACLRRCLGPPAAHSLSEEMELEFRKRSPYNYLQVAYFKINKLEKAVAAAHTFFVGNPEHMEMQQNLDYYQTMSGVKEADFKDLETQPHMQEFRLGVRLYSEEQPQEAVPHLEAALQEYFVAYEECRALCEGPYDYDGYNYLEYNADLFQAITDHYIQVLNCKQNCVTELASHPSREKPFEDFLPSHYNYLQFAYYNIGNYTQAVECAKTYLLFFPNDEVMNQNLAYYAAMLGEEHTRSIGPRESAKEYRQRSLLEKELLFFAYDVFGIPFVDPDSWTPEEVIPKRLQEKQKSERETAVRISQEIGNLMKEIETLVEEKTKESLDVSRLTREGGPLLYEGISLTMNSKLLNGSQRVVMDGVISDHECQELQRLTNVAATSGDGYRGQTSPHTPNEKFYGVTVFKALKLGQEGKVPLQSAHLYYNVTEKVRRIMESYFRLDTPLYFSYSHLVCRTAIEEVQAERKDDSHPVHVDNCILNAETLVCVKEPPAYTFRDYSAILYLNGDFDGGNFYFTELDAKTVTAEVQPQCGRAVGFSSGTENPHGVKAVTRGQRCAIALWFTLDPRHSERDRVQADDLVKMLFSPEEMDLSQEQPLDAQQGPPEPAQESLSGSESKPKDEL
UniProt O60313: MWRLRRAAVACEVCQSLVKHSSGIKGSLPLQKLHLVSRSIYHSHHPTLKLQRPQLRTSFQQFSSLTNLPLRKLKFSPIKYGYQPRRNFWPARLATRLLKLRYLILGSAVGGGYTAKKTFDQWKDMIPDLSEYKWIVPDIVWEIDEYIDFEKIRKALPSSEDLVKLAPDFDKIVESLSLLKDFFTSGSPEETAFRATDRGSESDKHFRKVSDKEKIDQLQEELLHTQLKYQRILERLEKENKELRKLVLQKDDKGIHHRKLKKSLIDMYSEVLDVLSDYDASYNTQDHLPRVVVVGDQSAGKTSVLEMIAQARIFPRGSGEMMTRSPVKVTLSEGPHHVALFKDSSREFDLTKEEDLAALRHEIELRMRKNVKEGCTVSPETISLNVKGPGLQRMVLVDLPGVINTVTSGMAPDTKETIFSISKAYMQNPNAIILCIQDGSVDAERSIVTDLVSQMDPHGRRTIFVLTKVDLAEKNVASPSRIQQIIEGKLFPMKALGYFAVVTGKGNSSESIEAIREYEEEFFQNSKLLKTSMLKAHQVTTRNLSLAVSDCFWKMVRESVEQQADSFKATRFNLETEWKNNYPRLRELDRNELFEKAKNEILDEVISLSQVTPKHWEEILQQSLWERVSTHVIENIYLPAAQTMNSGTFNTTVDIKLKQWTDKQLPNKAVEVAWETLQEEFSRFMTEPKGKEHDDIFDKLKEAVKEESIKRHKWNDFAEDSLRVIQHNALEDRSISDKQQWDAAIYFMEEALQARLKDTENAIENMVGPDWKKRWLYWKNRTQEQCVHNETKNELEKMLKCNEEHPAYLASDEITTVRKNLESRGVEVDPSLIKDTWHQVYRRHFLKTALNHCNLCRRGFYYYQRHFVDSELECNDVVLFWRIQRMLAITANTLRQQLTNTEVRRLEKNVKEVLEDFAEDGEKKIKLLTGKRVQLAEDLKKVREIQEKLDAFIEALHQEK
UniProt O43809, whole entry, looked up: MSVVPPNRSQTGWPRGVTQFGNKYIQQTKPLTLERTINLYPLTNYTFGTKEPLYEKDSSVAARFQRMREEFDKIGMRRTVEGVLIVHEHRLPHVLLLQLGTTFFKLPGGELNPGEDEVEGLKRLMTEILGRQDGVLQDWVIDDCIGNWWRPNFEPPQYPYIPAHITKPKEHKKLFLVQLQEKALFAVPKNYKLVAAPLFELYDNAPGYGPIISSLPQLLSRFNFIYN
UniProt Q9BVL2: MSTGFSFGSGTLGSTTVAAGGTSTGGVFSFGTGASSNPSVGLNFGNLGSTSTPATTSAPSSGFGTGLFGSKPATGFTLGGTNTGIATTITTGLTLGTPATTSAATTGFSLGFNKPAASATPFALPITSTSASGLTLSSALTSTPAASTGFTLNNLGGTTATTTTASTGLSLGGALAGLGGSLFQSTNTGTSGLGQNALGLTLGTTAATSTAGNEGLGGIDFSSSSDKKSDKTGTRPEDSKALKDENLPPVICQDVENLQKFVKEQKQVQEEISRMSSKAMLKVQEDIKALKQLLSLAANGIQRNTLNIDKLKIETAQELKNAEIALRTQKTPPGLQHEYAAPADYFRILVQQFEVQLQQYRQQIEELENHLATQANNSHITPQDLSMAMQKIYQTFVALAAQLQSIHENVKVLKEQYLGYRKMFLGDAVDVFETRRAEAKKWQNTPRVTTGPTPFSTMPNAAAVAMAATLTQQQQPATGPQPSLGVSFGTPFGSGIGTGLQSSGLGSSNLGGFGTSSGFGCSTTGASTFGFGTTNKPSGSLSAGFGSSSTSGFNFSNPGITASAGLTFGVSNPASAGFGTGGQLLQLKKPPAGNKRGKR
UniProt Q9NTK5, whole entry, looked up: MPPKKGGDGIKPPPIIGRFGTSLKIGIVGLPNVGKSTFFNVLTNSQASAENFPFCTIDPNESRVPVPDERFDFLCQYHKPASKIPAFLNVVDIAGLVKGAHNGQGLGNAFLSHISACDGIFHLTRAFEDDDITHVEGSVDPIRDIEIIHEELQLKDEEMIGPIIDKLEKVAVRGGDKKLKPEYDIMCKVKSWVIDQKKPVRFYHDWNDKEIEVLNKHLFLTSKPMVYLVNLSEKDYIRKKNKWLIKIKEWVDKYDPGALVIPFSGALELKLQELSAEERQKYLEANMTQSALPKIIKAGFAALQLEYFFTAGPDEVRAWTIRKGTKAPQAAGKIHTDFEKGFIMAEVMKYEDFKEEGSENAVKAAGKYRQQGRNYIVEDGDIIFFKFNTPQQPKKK
UniProt P22059, whole entry, looked up: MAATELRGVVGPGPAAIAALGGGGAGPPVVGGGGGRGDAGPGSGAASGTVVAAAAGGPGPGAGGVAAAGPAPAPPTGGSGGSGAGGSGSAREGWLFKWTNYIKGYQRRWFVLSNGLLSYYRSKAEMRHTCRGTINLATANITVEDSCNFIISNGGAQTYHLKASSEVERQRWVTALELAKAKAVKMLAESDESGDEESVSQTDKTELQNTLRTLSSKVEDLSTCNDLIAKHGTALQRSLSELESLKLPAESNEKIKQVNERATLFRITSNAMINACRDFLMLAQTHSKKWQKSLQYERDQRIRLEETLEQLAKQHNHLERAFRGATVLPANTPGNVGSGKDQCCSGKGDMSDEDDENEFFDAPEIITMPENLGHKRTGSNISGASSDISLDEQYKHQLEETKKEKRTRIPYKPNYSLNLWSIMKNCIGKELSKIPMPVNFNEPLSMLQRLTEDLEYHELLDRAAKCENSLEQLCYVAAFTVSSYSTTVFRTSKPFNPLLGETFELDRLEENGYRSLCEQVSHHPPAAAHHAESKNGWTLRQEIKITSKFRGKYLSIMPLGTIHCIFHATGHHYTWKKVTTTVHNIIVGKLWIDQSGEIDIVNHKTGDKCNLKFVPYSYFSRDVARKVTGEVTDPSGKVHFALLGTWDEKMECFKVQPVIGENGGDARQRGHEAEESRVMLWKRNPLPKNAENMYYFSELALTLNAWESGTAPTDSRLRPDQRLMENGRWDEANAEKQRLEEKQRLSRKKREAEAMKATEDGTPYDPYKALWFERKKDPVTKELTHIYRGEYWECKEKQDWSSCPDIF

Tests used:
Experiment in all cases: log2 fold change, soluble protein after heating vs DMSO (PISA); higher = thermal stabilisation; K562 cells, 10 uM, 30 min; active = over 0.2 and 3.5 SD of the protein, either way, in both replicates (recomputed)
[1] = compound: NC(=O)Nc1cc(-c2cccc(F)c2)sc1C(=O)N[C@H]1CCCNC1
In short: (§1)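 Values are thermal stability changes relative to control samples and are taken from duplicates. They are stated as log2 fold changes. Before quantification by TMTpro 16plex LC-MS/MS with equalised channel sums, K562 cells at 2×10^6 cells/mL were treated with 10 μM compound for 30 min, heated in aliquots for 3 min across 48°C-58°C, pooled, extracted in PBS with 0.5% NP-40 at 4°C, and centrifuged at 21,000xg for 90 min to give the soluble supernatant.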

[2] = compound: NC(=O)c1cnc(N[C@@H]2CCCC[C@@H]2N)nc1Nc1cccc(-n2nccn2)c1
In short: as §1

[3] = compound: NC1(c2ccc(-c3nc4ccn5c(=O)[nH]nc5c4cc3-c3ccccc3)cc2)CCC1
In short: as §1

[4] = compound: NCC(=O)Nc1ccc(-n2nc(C(F)(F)F)cc2-c2ccc3c(ccc4ccccc43)c2)cc1
In short: as §1

entinostat = compound: Nc1ccccc1NC(=O)c1ccc(CNC(=O)OCc2cccnc2)cc1 [entinostat]
In short: as §1

vorinostat = compound: O=C(CCCCCCC(=O)Nc1ccccc1)NO [vorinostat]
In short: as §1

citarinostat = compound: O=C(CCCCCCNC(=O)c1cnc(N(c2ccccc2)c2ccccc2Cl)nc1)NO [citarinostat]
In short: as §1

silmitasertib = compound: O=C(O)c1ccc2c(c1)nc(Nc1cccc(Cl)c1)c1ccncc12 [silmitasertib]
In short: as §1

[5] = compound: O=C1NC(=O)C(c2cnc3ccccn23)=C1c1cn2c3c(cc(F)cc13)CN(C(=O)N1CCCCC1)CC2
In short: as §1

[6] = compound: c1cc(OCCN2CCCCC2)cc(-c2n[nH]c3ccc(-c4nnc[nH]4)cc23)c1
In short: as §1

| Target | log2 fold change [1] | log2 fold change [2] | log2 fold change [3] | log2 fold change [4] | log2 fold change (entinostat) | log2 fold change (vorinostat) | log2 fold change (citarinostat) | log2 fold change (silmitasertib) | log2 fold change [5] | log2 fold change [6] |
| --- | --- | --- | --- | --- | --- | --- | --- | --- | --- | --- |
| OTUD6B (UniProt Q8N6M0) | inactive: -0.122 | inactive: -0.121 | inactive: -0.167 | inactive: -0.064 | inactive: 0.022 | inactive: 0.215 | inactive: -0.013 | inactive: 0.059 | inactive: -0.065 | inactive: -0.053 |
| OXCT1 (UniProt P55809) | inactive: -0.006 | inactive: -0.014 | inactive: -0.015 | inactive: -0.008 | inactive: -0.004 | inactive: -0.009 | inactive: 0.011 | inactive: -0.018 | inactive: -0.041 | inactive: -0.012 |
| NUCKS1 (UniProt Q9H1E3) | active: -0.405 | inactive: 0.035 | inactive: 0.014 | inactive: 0.04 | inactive: -0.01 | inactive: -0.08 | inactive: -0.022 | inactive: -0.008 | inactive: -0.044 | inactive: 0.079 |
| NUDT4 (UniProt Q9NZJ9) | inactive: -0.02 | inactive: -0.003 | inactive: -0.123 | inactive: -0.095 | inactive: 0.101 | inactive: 0.067 | inactive: 0.062 | inactive: 0.001 | inactive: -0.027 | inactive: -0.05 |
| NUDT9 (UniProt Q9BW91) | inactive: 0.014 | inactive: -0.01 | inactive: -0.124 | inactive: -0.025 | inactive: 0.014 | inactive: -0.002 | inactive: 0.034 | inactive: 0.005 | inactive: -0.033 | inactive: 0.037 |
| NUBP2 (UniProt Q9Y5Y2) | inactive: -0.064 | inactive: 0.054 | inactive: -0.117 | inactive: 0.026 | inactive: 0.019 | inactive: 0.057 | inactive: 0.007 | inactive: -0.03 | inactive: 0.001 | inactive: -0.012 |
| NUDT19 (UniProt A8MXV4) | inactive: -0.041 | inactive: -0.018 | inactive: -0.019 | inactive: -0.015 | inactive: -0.016 | inactive: -0.015 | inactive: 0.063 | inactive: -0.016 | inactive: -0.069 | inactive: -0.01 |
| OSBPL9 (UniProt Q96SU4) | inactive: 0.004 | inactive: -0.19 | inactive: -0.147 | inactive: -0.015 | inactive: 0.047 | inactive: 0.073 | inactive: 0.02 | inactive: 0.147 | inactive: 0.231 | inactive: -0.279 |
| OGFR (UniProt Q9NZT2) | inactive: 0.049 | inactive: -0.198 | inactive: 0.015 | inactive: 0.068 | inactive: -0.02 | inactive: 0.096 | inactive: 0.121 | inactive: 0.003 | inactive: -0.019 | inactive: -0.092 |
| P3H1 (UniProt Q32P28) | inactive: -0.02 | inactive: -0.003 | inactive: -0.04 | inactive: 0.049 | inactive: 0.037 | inactive: -0.013 | inactive: 0 | inactive: 0.022 | inactive: 0.003 | inactive: -0.114 |
| OPA1 isoform 2 (UniProt O60313) | inactive: -0.046 | inactive: -0.054 | inactive: -0.165 | inactive: -0.072 | inactive: 0.024 | inactive: 0.033 | inactive: 0.05 | inactive: -0.027 | inactive: -0.033 | inactive: -0.048 |
| NUDT21 (UniProt O43809) | inactive: -0.042 | inactive: -0.002 | inactive: 0.049 | inactive: -0.007 | inactive: 0.037 | inactive: -0.078 | inactive: 0.029 | inactive: -0.124 | inactive: 0.062 | inactive: -0.131 |
| P4HA1 (UniProt P13674) | inactive: 0.001 | inactive: -0.016 | inactive: -0.036 | inactive: 0.067 | inactive: -0.012 | inactive: -0.027 | inactive: 0.004 | inactive: 0.032 | inactive: 0 | inactive: -0.042 |
| NT5DC1 (UniProt Q5TFE4) | inactive: -0.057 | inactive: -0.052 | inactive: -0.003 | inactive: -0.012 | inactive: -0.037 | inactive: -0.013 | inactive: 0.003 | inactive: 0.025 | inactive: -0.038 | active: 0.236 |
| PAAT (UniProt Q9H8K7) | inactive: -0.177 | inactive: -0.022 | inactive: -0.194 | inactive: 0.059 | inactive: -0.017 | inactive: -0.028 | inactive: 0 | inactive: 0.202 | inactive: -0.083 | inactive: -0.188 |
| P4HA1 isoform 2 (UniProt P13674) | inactive: -0.016 | inactive: 0.019 | inactive: -0.062 | inactive: 0.092 | inactive: -0.049 | inactive: -0.08 | inactive: -0.071 | inactive: 0.016 | inactive: -0.004 | inactive: -0.152 |
| NUB1 (UniProt Q9Y5A7) | inactive: -0.015 | inactive: -0.028 | inactive: -0.161 | inactive: -0.05 | inactive: 0.041 | inactive: 0.059 | inactive: 0.162 | inactive: 0.163 | inactive: 0.008 | inactive: -0.019 |
| NUP58 (UniProt Q9BVL2) | inactive: -0.052 | inactive: -0.054 | inactive: -0.004 | inactive: -0.068 | inactive: 0.004 | inactive: -0.005 | inactive: 0.034 | inactive: -0.02 | inactive: -0.027 | inactive: -0.043 |
| OSTM1 (UniProt Q86WC4) | inactive: -0.035 | inactive: -0.029 | active: -0.319 | inactive: 0.003 | inactive: 0.006 | inactive: 0.072 | inactive: 0.064 | inactive: 0.034 | inactive: -0.037 | inactive: -0.037 |
| P4HB (UniProt P07237) | inactive: -0.004 | inactive: 0.001 | inactive: -0.021 | inactive: 0.007 | inactive: -0.013 | inactive: -0.043 | inactive: -0.018 | inactive: -0.005 | inactive: -0.049 | inactive: -0.044 |
| PA2G4 (UniProt Q9UQ80) | inactive: 0 | inactive: -0.011 | inactive: -0.022 | inactive: -0.034 | inactive: 0.011 | inactive: 0.02 | inactive: 0.035 | inactive: -0.038 | inactive: 0.191 | inactive: -0.053 |
| ORC3 isoform 2 (UniProt Q9UBD5) | inactive: 0.018 | inactive: -0.09 | inactive: -0.093 | inactive: -0.142 | inactive: -0.004 | inactive: 0.236 | inactive: 0.023 | inactive: 0.058 | inactive: 0.008 | inactive: -0.188 |
| NUP188 (UniProt Q5SRE5) | inactive: -0.051 | inactive: -0.056 | inactive: -0.1 | inactive: -0.082 | inactive: 0.072 | inactive: 0.12 | inactive: 0.078 | inactive: 0.015 | inactive: 0.001 | inactive: -0.027 |
| OLA1 (UniProt Q9NTK5) | inactive: 0.003 | inactive: 0.002 | inactive: -0.055 | inactive: -0.049 | inactive: 0.001 | inactive: 0.018 | inactive: 0.084 | inactive: -0.026 | inactive: -0.03 | inactive: -0.016 |
| OTUD5 isoform 5 (UniProt Q96G74) | inactive: -0.009 | inactive: -0.013 | inactive: -0.017 | inactive: 0 | inactive: 0.016 | inactive: 0.017 | inactive: 0.044 | inactive: -0.004 | inactive: -0.081 | inactive: 0.227 |
| NUSAP1 (UniProt Q9BXS6) | inactive: 0.081 | inactive: -0.047 | inactive: -0.067 | inactive: -0.111 | inactive: -0.027 | inactive: 0.005 | inactive: -0.022 | inactive: 0.175 | inactive: 0.168 | inactive: -0.223 |
| OTC (UniProt P00480) | inactive: -0.101 | inactive: -0.373 | inactive: -0.555 | inactive: -0.417 | inactive: -0.069 | inactive: -0.114 | inactive: -0.127 | inactive: 0.204 | inactive: -0.08 | inactive: -0.246 |
| OSBP (UniProt P22059) | inactive: -0.007 | inactive: 0.019 | inactive: -0.17 | inactive: -0.036 | inactive: 0.024 | inactive: 0.013 | inactive: 0.03 | inactive: 0.014 | inactive: -0.131 | inactive: -0.066 |
| OCIAD1 (UniProt D6RDK6) | inactive: -0.157 | inactive: -0.302 | inactive: -0.27 | inactive: -0.247 | inactive: -0.049 | inactive: 0.006 | inactive: -0.141 | inactive: 0.249 | inactive: 0.068 | inactive: -0.235 |

Taken from above for reference:

| Target | log2 fold change [1] | log2 fold change [2] | log2 fold change [3] | log2 fold change [4] | log2 fold change (entinostat) | log2 fold change (vorinostat) | log2 fold change (citarinostat) | log2 fold change (silmitasertib) | log2 fold change [5] | log2 fold change [6] |
| --- | --- | --- | --- | --- | --- | --- | --- | --- | --- | --- |
| OSBP (UniProt P22059) | inactive: -0.007 | inactive: 0.019 | inactive: -0.17 | inactive: -0.036 | inactive: 0.024 | inactive: 0.013 | inactive: 0.03 | inactive: 0.014 | inactive: -0.131 | inactive: -0.066 |
| OCIAD1 (UniProt D6RDK6) | inactive: -0.157 | inactive: -0.302 | inactive: -0.27 | inactive: -0.247 | inactive: -0.049 | inactive: 0.006 | inactive: -0.141 | inactive: 0.249 | inactive: 0.068 | inactive: -0.235 |
